For five molecules, binding results are on record in PMC3743401.

Amino acid sequences for entries named in this document (tags omitted).
UniProt Q9Y6K9: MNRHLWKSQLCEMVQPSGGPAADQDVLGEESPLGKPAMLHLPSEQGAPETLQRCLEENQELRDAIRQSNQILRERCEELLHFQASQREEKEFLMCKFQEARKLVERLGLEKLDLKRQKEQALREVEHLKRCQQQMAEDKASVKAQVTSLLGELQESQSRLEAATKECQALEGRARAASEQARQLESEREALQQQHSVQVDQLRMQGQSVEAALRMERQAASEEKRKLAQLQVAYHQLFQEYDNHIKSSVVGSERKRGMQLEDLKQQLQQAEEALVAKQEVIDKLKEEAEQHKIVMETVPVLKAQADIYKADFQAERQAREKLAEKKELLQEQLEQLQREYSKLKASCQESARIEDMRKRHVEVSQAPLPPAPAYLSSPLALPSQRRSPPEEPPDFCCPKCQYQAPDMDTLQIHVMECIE
UniProt Q62210: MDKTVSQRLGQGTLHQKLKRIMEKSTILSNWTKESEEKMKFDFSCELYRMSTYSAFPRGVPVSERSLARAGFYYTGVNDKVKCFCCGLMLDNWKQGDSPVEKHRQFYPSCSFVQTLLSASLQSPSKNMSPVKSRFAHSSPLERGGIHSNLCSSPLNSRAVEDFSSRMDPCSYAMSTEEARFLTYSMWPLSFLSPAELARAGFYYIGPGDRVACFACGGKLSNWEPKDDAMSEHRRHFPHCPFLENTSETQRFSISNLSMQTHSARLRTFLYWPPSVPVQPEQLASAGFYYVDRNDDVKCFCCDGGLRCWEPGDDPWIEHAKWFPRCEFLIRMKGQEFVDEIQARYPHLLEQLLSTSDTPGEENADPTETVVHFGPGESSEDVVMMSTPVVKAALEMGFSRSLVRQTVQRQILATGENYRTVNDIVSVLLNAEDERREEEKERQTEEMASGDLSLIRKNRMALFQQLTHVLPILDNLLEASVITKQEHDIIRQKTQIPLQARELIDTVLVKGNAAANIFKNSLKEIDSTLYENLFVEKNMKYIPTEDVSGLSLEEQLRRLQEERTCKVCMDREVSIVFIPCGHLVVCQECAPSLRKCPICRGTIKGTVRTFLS
UniProt Q07832: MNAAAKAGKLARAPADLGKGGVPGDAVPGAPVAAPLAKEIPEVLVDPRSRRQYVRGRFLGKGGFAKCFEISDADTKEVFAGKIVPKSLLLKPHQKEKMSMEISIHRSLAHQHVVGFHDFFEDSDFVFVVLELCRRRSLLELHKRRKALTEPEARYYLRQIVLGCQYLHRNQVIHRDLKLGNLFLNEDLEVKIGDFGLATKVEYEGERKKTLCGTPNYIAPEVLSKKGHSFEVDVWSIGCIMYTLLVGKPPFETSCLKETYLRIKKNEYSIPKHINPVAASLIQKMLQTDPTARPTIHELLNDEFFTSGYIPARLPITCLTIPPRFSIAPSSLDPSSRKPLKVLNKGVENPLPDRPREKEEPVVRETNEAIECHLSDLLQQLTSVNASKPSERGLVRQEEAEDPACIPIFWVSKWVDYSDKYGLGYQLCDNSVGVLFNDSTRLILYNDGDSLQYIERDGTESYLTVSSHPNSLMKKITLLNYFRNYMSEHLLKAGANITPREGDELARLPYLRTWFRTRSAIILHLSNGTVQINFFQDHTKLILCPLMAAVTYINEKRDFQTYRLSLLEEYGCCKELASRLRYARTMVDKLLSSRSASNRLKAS

The labels stand for the following.
B1: HOIL-1 (endogenous, MEFs) (enzyme, UniProt Q9WUB0 1-508)
chain: MDEKTKKAEEMALSLARAVAGGDEQAAIKYATWLAEQRVPLRVQVKPEVSPTQDIRLCVSVEDAYMHTVTIWLTVRPDMTVASLKDMVFLDYGFPPSLQQWVVGQRLARDQETLHSHGIRRNGDGAYLYLLSARNTSLNPQELQRQRQLRMLEDLGFKDLTLQSRGPLEPVLPKPRTNQEPGQPDAAPESPPVGWQCPGCTFINKPTRPGCEMCCRARPETYQIPASYQPDEEERARLAGEEEALRQYQQRKQQQQEGNYLQHVQLEQRSLVLNTEPTECPVCYSVLAPGEAVVLRECLHTFCRECLQGTIRNSQEAEVACPFIDSTYSCPGKLLEREIRALLSPEDYQRFLDLGVSIAENRSTLSYHCKTPDCRGWCFFEDDVNEFTCPVCTRVNCLLCKAIHEHMNCREYQDDLALRAQNDVAARQTTEMLKVMLQQGEAMHCPQCRIVVQKKDGCDWIRCTVCHTEICWVTKGPRWGPGGPGDTSGGCRCRVNGIPCHPSCQNCH
B2: TRAF2 (endogenous, MEFs) (enzyme, UniProt P39429 1-501)
chain: MAAASVTSPGSLELLQPGFSKTLLGTRLEAKYLCSACKNILRRPFQAQCGHRYCSFCLTSILSSGPQNCAACVYEGLYEEGISILESSSAFPDNAARREVESLPAVCPNDGCTWKGTLKEYESCHEGLCPFLLTECPACKGLVRLSEKEHHTEQECPKRSLSCQHCRAPCSHVDLEVHYEVCPKFPLTCDGCGKKKIPRETFQDHVRACSKCRVLCRFHTVGCSEMVETENLQDHELQRLREHLALLLSSFLEAQASPGTLNQVGPELLQRCQILEQKIATFENIVCVLNREVERVAVTAEACSRQHRLDQDKIEALSNKVQQLERSIGLKDLAMADLEQKVSELEVSTYDGVFIWKISDFTRKRQEAVAGRTPAIFSPAFYTSRYGYKMCLRVYLNGDGTGRGTHLSLFFVVMKGPNDALLQWPFNQKVTLMLLDHNNREHVIDAFRPDVTSSSFQRPVSDMNIASGCPLFCPVSKMEAKNSYVRDDAIFIKAIVDLTGL
B3: Sharpin (endogenous, MEFs) (protein, UniProt Q91WA6 1-380)
chain: MSPPAGGAAVAADPASPVVLLAVHAAVRPLGAGQDAEAQPRKLQLIADPERPGRFRLGLLGTEPGAVSLEWPLEAICYTVRGPNQHELQPPPGGPGTFSVHFLDPEEAQQWAALVRDATAEGQNGSGSPAPAPAPAMCPISPPCSSMAQIPKATQPEVDLPQSSGNFKKEELATRLSQAIAGGDEKAAAQVAAVLAQHHVALNVQLMEAWFPPGPIRLQVTVEDATSVLSSSSSAHVSLKIHPHCSIAALQDQVFSEFGFPPAVQRWVIGRCLCMPERSLASYGVSQDGDPAFLYLLSAPREVSGQSLQNSKMDRKLGLFPQSLGLPHDLQPSSSSLPSPSQPGWSCPSCTFINASNRPGCEMCSTQRPCAWDPLAAAST

These are yes or no findings as the source states them, for the method shown. In cells and extracts the contact can be indirect. Here binding means that the protein was enriched with, or labelled near, the bait; the list need not be complete.

For this experiment, the target named is Flag-NEMO (purified, wild type) (human) (UniProt Q9Y6K9). Description: affinity purification with mass spectrometry; in vitro SILAC: heavy or light MEF cytosolic extracts incubated with Flag-NEMO protein (WT or UBDm) and ATP with or without His6-MAVSΔTM at 30°C for 1 hr; Flag immunoprecipitation; SDS-PAGE; nanoLC-MS/MS; only the target purified.
With “cIAP1 (endogenous, MEF extract) (from UniProt Q62210 1-612) (enzyme)”, the binding result is “binds”.

For the molecule “PLK1 (endogenous, MEF extract) (from UniProt Q07832 1-603) (enzyme)”, the binding result is “binds”.

As for B1, the binding result was “binds”.

For the molecule B2, the binding result was “binds”.

Take B3: the binding entry is on record as “binds”.
